Assay results reported in patent US20100098682A1.
No constants are given. Whether binding was seen depends on the method and setting. In cells and extracts the contact can be indirect. Some results given as binding are weak or reduced against the parent protein; the word gives no strength.

Sequences of proteins named here, by UniProt entry; tags and fusion partners are left off. Residues count along the entry.
UniProt P05067, residues 672-770: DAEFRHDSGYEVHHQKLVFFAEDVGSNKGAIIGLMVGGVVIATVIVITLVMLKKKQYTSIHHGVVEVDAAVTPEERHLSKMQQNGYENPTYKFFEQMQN

Target: C99, COOH-terminal fragment of 99 amino acids of APP (human) (UniProt P05067)
Experiment: αFLAG co-immunoprecipitation from co-transfected HeLa cell lysates, western blot

FLAG-BRI2 (full length BRI2, amino acids 1 to 266, N-terminal FLAG tag) (from UniProt A5A6H8 1-266)
binding: binds
